Consider 2 molecules from paper PMC3853298.

Chains of the proteins cited; added tags and fusions are not shown. Lines headed by an entry give the natural chain unless they say otherwise; changes in a name come on top.
UniProt P02454: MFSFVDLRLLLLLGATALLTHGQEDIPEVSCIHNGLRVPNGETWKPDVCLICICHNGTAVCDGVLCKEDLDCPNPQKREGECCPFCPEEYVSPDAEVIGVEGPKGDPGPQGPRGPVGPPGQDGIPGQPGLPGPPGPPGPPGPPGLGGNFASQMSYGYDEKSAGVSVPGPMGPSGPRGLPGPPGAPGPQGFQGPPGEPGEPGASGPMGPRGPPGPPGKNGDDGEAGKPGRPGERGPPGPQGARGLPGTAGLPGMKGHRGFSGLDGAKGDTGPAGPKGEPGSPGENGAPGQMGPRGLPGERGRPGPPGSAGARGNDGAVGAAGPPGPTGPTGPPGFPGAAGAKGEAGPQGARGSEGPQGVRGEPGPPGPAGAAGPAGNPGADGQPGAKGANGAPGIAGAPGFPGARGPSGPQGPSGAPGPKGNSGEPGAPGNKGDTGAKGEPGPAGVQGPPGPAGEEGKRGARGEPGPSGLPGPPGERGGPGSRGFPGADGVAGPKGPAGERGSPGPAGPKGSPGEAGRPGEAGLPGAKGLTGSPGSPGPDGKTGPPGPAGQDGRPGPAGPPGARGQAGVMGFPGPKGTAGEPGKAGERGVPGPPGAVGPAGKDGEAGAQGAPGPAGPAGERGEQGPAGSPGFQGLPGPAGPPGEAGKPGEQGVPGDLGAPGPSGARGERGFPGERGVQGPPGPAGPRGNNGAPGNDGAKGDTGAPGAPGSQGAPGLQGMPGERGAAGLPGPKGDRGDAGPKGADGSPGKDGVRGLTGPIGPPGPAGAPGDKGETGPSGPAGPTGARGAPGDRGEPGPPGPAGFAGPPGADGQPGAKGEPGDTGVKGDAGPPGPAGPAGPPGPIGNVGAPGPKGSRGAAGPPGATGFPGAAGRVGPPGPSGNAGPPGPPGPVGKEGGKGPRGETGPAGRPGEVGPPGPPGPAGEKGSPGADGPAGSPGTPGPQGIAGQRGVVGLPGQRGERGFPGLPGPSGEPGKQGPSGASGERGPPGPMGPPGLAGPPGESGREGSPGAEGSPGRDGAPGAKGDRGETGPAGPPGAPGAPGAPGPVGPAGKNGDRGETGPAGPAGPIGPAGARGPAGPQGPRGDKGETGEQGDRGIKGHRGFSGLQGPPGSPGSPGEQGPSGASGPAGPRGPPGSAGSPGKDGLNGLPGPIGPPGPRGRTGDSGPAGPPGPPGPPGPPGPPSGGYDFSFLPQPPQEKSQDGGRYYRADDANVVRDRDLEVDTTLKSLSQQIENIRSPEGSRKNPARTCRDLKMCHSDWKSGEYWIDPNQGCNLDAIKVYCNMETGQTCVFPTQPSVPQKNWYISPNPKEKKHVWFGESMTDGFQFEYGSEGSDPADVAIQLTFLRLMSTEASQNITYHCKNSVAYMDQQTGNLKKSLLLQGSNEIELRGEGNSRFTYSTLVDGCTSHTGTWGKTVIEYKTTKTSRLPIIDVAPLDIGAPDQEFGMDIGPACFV
UniProt P02466: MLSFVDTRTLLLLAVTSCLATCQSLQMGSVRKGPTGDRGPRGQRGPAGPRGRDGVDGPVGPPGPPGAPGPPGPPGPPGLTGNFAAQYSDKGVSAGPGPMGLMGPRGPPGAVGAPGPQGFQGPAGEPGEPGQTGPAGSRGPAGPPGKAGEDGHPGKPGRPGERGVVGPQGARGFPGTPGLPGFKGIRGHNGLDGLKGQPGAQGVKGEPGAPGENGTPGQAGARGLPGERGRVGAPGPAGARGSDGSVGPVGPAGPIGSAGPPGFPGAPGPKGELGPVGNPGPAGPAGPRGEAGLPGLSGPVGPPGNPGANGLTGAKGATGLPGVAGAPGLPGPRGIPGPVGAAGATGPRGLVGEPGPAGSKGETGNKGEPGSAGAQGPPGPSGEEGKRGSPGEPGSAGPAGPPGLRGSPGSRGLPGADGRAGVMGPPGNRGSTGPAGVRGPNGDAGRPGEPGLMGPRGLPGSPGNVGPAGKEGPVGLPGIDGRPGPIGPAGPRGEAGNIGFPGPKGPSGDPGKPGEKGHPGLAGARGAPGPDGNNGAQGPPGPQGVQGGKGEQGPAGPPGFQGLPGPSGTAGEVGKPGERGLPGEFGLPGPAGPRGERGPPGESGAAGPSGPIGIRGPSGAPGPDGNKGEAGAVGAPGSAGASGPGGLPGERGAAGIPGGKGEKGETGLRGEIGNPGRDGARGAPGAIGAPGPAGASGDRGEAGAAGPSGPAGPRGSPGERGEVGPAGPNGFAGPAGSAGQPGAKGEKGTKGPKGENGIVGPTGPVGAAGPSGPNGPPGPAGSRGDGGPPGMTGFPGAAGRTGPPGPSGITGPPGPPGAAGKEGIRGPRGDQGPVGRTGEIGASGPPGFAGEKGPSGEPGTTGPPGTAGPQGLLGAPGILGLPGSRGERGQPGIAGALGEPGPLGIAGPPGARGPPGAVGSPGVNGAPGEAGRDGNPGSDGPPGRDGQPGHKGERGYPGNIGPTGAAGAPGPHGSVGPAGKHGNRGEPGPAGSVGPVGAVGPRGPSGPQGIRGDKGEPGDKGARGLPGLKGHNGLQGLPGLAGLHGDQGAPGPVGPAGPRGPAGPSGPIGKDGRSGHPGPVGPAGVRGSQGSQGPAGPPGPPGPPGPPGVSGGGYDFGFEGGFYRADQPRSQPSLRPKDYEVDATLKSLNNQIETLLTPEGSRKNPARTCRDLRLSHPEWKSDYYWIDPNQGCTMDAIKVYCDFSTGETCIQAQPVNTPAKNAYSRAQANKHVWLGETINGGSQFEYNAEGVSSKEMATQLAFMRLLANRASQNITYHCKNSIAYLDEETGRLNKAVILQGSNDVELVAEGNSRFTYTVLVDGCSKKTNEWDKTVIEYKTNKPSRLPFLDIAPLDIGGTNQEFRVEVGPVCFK

Substitutions are numbered along the chain they refer to. Names and notes keep the numbering of the source. Results are given in words; binding and its absence hold for the method and conditions named. Some binding calls cover weakened binding; strength is not graded here.

The target of the assay is rat tail type I collagen (rat) (UniProt P02454+P02466). Description: ELISA; solid-phase binding assay: rat tail type I collagen coated on Maxisorp plates (1.25 ug per well), blocked with kappa-casein in PBS with 0.05% Tween 20; decorin proteins incubated 3 h, detected by anti-His tag antibody-HRP; high and variable nonspecific binding reported; both purified. For orientation: ELISA stands for enzyme-linked immunosorbent assay.

B1: mouse decorin core protein, wild type (residues 45-354) (domain or fragment, UniProt P28654 45-354)
chain: APLALISMCPYRCQCHLRVVQCSDLGLDKVPWDFPPDTTLLDLQNNKITEIKEGAFKNLKDLHTLILVNNKISKISPEAFKPLVKLERLYLSKNQLKELPEKMPRTLQELRVHENEITKLRKSDFNGLNNVLVIELGGNPLKNSGIENGAFQGLKSLSYIRISDTNITAIPQGLPTSLTEVHLDGNKITKVDAPSLKGLINLSKLGLSFNSITVMENGSLANVPHLRELHLDNNKLLRVPAGLAQHKYIQVVYLHNNNISAVGQNDFCRAGHPSRKASYSAVSLYGNPVRYWEIFPNTFRCVYVRSAIQLGNYKAAA
modifications: N-linked glycans (four consensus sites for N-linked glycosylation)
For B1, the binding result is recorded as “binds”.

B2: mouse decorin core protein Y51A/R52A/Q54A (residues 45-354) (domain or fragment, UniProt P28654 45-354)
chain: B1 chain with Y11A, R12A, Q14A
modifications: N-linked glycans (four consensus sites for N-linked glycosylation)
On to B2, for which the binding result was “binds”.
